Measurements as given in patent US10292391B2, “Pesticidally active 1,2,4-triazole derivatives with sulphur containing substituents” (Syngenta Participations AG, priority 2015, dated 2019).
Some results were stated once for a whole list of compounds, not compound by compound.

Each molecule was assayed on Anopheles stephensi (Indian Malaria Mosquito) (assay: Activity against Anopheles stephensi, dry deposit in tissue culture plates). Conditions: 200 ppm in ethanol; adult females; after 48 h and/or 24 h.
Type: in vivo

| SMILES | control of Anopheles stephensi |
| --- | --- |
| CCS(=O)(=O)c1cc(C2(C#N)CC2)cnc1-c1nnc(-c2cc(C(F)(F)F)ccn2)n1C [Compound P17, 1-[5-ethylsulfonyl-6-[4-methyl-5-[4-(trifluoromethyl)-2-pyridyl]-1,2,4-triazol-3-yl]-3-pyridyl]cyclopropanecarbonitrile] | at least 80% |
| CCS(=O)(=O)c1cc(-c2ccc(C#N)cn2)cnc1-c1nnc(-c2cc(C(F)(F)F)ccn2)n1C [Compound P22] | at least 80% |
| CCS(=O)(=O)c1cc(-c2cc(Cl)ccn2)cnc1-c1nnc(-c2cc(C(F)(F)F)ccn2)n1C [Compound P26] | at least 80% |
| CCS(=O)(=O)c1cc(-n2cnc(Cl)n2)cnc1-c1nnc(-c2cc(C(F)(F)F)ccn2)n1C [Compound P27] | at least 80% |
| CCS(=O)(=O)c1ccc(-c2ncccn2)nc1-c1nnc(-c2cc(C(F)(F)F)ccn2)n1C [Compound P39] | at least 80% |
